In the assay the target is NiuDΔ7, C-terminally truncated NiuD fused to the T18 fragment (Helicobacter pylori (strain B128)). As to the kind of experiment: two-hybrid; Bacterial Adenylate Cyclase Two-Hybrid (BACTH) in E. coli BTH101; SlyD fused to T25, Niu proteins fused to T18 (pUT18); LB with IPTG 10^-3 M overnight at 30°C; ß-galactosidase activity in Miller units.

Results are given in words; binding and its absence hold for the method and conditions named. Binding calls can cover weak binding; strength is not graded here. Where a sequence is shown, tags or fusion partners need not be part of it.

B1: SlyD-ΔCter mutant (C-terminal His- and Cys-rich region from residue 155 removed) fused to the T25 fragment (domain or fragment, UniProt O25748 1-154)
chain: MQNHDLESIKQAALIEYEVREQGSSIVLDSNISKEPLEFIIGTNQIIAGLEKAVLKAQIGEWEEVVIAPEEAYGVYESSYLQEVPRDQFEGIELEKGMSVFGQTEDNQTIQAIIKDFSATHVMVDYNHPLAGKTLAFRFKVLGFREVSEEEILA
For B1, the binding result was “binds”.

For the origin of these results see paper PMC7840056.
